Source: PubChem BioAssay AID1224826 (NIAID, 2016)

Screen: 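Knock-downs that raise or lower Tnf reporter signal after endotoxin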 (primary screen)
Cells: RAW264.7 G9 macrophages from mouse bearing reporters for p65 (GFP) and the Tnf promoter (mCherry)
Reagent: siRNA pool against mouse genes, 100 nM
Time to read-out: 16 h of LPS stimulation, after 2 days of siRNA transfection
Treatment: bacterial lipopolysaccharide (Salmonella minnesota R595), 10 ng/ml
Read-out: 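Nuclear mCherry signal of the Tnf promoter reporter measured by imaging after background removal, scaled to each plate median and turned into robust z-scores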
Scale: Tnf reporter robust z-score: higher = stronger Tnf promoter reporter signal after LPS
Hit rule: 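Called active when robust z-score is at most -1.3, matching the median of the Tlr4 knock-down control, or over 3; control wells and wells with under 50 cells never active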
Calls: active = Tnf reporter clearly lowered or raised; inactive = no clear change in Tnf reporter
In all, the deposit lists about 17,000 reagents; this is a random part of them. About 1,110 of all reagents (6.6%) were called active. 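Active means lowered or raised reporter signal; replicate intensities are raw and not normalised per plate.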 Further read-outs or replicates are left out here. No sequences are given here.

How did the screen score Gpt (GeneID 76282)?
Tnf reporter robust z-score: -0.62; fewer than 50 cells in well: enough cells in well; activity call: inactive

Which result is listed for Cdv3 (GeneID 321022)?
Tnf reporter robust z-score: -1.35; fewer than 50 cells in well: enough cells in well; activity call: active

How did the screen score Spag17os (GeneID 320613)?
Tnf reporter robust z-score: 1.98; fewer than 50 cells in well: enough cells in well; activity call: inactive

For Ly6c1 (GeneID 17067), what does the deposit list?
Tnf reporter robust z-score: -0.09; fewer than 50 cells in well: enough cells in well; activity call: inactive

How did the screen score A830031A19Rik (GeneID 268391)?
Tnf reporter robust z-score: 0.69; fewer than 50 cells in well: enough cells in well; activity call: inactive

For Cpsf4l (GeneID 52670), what does the deposit list?
Tnf reporter robust z-score: -0.58; fewer than 50 cells in well: enough cells in well; activity call: inactive

How did the screen score Or5b124 (GeneID 258628)?
Tnf reporter robust z-score: 1.06; fewer than 50 cells in well: enough cells in well; activity call: inactive

What is on record for Spag5 (GeneID 54141)?
Tnf reporter robust z-score: 0.37; fewer than 50 cells in well: enough cells in well; activity call: inactive

For C230029D21Rik (retired record) (GeneID 320255), what was measured?
fewer than 50 cells in well: fewer than 50 cells per well; well left out of calls; activity call: inactive

How did the screen score Trim10 (GeneID 19824)?
Tnf reporter robust z-score: -0.57; fewer than 50 cells in well: enough cells in well; activity call: inactive

Which result is listed for Amy2a5 (GeneID 109959)?
Tnf reporter robust z-score: -0.74; fewer than 50 cells in well: enough cells in well; activity call: inactive

For Txnrd1 (GeneID 50493), what does the deposit list?
Tnf reporter robust z-score: 0.16; fewer than 50 cells in well: enough cells in well; activity call: inactive

Ordered by “Tnf reporter robust z-score” (ascending): 2 of the entries above
Cpsf4l (GeneID 52670) — Tnf reporter robust z-score: -0.58; fewer than 50 cells in well: enough cells in well; activity call: inactive
Or5b124 (GeneID 258628) — Tnf reporter robust z-score: 1.06; fewer than 50 cells in well: enough cells in well; activity call: inactive
